The text below walks through data of paper PMC13483899.

Protein sequences, listed by entry. Tags and fused reporters are not part of them. Residues count along the entry.
UniProt P56480, residues 47-529: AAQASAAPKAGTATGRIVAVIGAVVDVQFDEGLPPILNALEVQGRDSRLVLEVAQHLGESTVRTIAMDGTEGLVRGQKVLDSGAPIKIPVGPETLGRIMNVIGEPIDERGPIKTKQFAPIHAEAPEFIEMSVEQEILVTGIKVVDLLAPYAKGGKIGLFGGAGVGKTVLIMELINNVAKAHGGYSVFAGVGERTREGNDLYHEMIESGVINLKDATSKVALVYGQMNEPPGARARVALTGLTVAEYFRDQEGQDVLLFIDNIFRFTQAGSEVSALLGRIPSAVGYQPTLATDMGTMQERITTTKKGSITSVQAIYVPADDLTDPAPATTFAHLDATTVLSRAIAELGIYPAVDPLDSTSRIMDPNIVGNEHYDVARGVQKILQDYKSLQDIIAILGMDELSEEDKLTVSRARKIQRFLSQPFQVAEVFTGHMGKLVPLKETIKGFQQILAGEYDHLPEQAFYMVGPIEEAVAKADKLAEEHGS
UniProt Q7TQ48, residues 21-472: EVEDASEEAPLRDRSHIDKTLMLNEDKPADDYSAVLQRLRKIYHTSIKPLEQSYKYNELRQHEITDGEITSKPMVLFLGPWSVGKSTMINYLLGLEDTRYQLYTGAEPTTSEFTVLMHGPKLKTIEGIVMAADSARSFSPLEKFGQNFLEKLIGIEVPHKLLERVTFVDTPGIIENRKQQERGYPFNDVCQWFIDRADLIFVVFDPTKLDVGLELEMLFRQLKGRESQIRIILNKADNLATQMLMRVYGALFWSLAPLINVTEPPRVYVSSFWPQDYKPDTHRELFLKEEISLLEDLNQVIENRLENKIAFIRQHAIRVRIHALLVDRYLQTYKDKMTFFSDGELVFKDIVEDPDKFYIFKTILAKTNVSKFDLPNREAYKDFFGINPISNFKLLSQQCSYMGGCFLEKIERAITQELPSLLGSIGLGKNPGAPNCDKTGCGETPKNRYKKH
UniProt Q03265, residues 44-553: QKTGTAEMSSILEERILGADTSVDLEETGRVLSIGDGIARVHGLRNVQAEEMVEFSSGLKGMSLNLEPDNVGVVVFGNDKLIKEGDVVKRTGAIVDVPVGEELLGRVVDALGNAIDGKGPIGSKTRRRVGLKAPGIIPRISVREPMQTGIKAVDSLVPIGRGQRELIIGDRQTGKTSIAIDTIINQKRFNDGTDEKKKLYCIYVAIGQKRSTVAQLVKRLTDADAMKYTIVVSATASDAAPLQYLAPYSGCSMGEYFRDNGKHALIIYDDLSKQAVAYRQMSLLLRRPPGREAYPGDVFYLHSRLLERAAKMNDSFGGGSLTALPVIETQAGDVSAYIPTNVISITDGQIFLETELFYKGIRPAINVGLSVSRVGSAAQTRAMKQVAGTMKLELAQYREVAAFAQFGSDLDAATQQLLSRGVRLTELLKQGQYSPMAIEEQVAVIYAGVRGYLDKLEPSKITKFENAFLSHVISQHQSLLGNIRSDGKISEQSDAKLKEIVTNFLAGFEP

No constants are given. Whether binding was seen depends on the method and setting. Binding seen in cells or lysates may run through a third protein. These calls come from enrichment with a bait or labelling near it, and not all partners need be listed.

This test has as its target T1, biotinylated human catestatin (CST; hCgA352-372) (human) (UniProt P10645).
T1 sequence (peptide, C-terminal biotin, separated from the peptide by the four-amino-acid spacer SGSG): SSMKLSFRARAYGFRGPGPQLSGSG
In words: affinity purification with mass spectrometry; ligand affinity chromatography: biotinylated human CST on streptavidin-agarose, incubated overnight at 4 °C with the Triton X-100-solubilized membrane fraction of mouse heart (25 mM HEPES pH 7.4, 100 mM NaCl, 2 mM MgCl2, 1 mM KCl); washed with 0.1% Triton X-100, eluted at pH 5.5; TCA precipitation, 10% SDS-PAGE, Coomassie, in-gel trypsin digest, LC-MS/MS; only the target purified.
With “mouse F1-ATP synthase β-subunit (from UniProt P56480 47-529)”, the binding entry was “binds”.

With “calsequestrin (mouse (endogenous in mouse heart))”, the binding result is given as “binds weakly”.

For the substance “sarcalumenin (from UniProt Q7TQ48 21-472)”, the binding result is “binds weakly”.

On to “mouse F1-ATP synthase α-subunit (from UniProt Q03265 44-553)”, for which the binding result is “binds”.
